These results are taken from PubChem BioAssay AID2685 (National Center for Advancing Translational Sciences (NCATS), 2010).

SMILES strings stand for the structures. Where “and” joins values, the source holds several entries; their conditions need not be identical. Equal values may be shown once. The list shows a part of the results. Further columns of the screen follow, without active or inactive calls. The list favours compounds with an active or inconclusive main result. Words in brackets tell the shape of the fitted curve; partial curves, single points and poor fits give uncertain potencies.

The nature of this test: qHTS Assay for Lipid Storage Modulators in Drosophila S3 Cells.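 On cell number change: cells counted by Cell Tracker Red CMTPX staining in the red channel.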 As to conditions: BODIPY lipid droplet fluorescence, 18-24 h; for cell number change: measured here: cell count max response, cells fed with added oleic acid. The procedure, abridged:
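Drosophila S3 cells loaded with oleic acid (400 uM, as added) and compounds at several concentrations; lipid droplets imaged by 488-nm laser-scanning cytometry, 500–530 nm intensity and object ratio to cell channel. Percent activity normalized to 20 uM Triacsin C.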
Background: qHTS replaces the single test concentration by a dilution series.

Setting [1] is: measured here: lipid fluorescence (Fed channel) AC50, cells fed with added oleic acid.
Setting [2] is: measured here: cell number channel AC50, cells fed with added oleic acid.

For orientation: AC50 means the concentration giving half of the maximal activity seen. Low readings indicate greater potency, high ones weaker potency. Consider `NC(=O)C1CCN(C(=O)COc2cccc3ccccc23)CC1`, for which the cell number change was 3.5%. The AC50 under setting [1] was 3.66 µM [falling, single point].

Consider `CCNC(=O)CC(=O)Nc1ccccc1C(=O)O`, for which the cell number change was -20.5%. Also, under setting [1], the AC50 was 0.651 µM [falling, full curve].

As for `C=C1C[C@]23C[C@@]1(O)CC[C@H]2[C@@]12C=C[C@H](O)[C@@](C)(C(=O)O1)[C@H]2[C@@H]3C(=O)O`, the cell number change was -23.9%. For the same compound, the AC50 under setting [1] is 103 nM [rising, single point] and 1.64 µM [falling, partial curve, poor fit].

Take `Cc1ccc2nc(SCC(=O)Nc3ccc(Cl)cc3)nc(=O)n2c1`: the cell number change is -11.4%. Under setting [1], the AC50 was 0.13 µM [falling, full curve, poor fit].

As for `CN(C)C1=NC(=O)/C(=C\c2ccccc2)S1`, the cell number change is -20.5%. For the same compound, the AC50 under setting [2] was 2.59 µM [falling, partial curve, poor fit]. For the same compound, the half-maximal activity concentration (AC50) under setting [1] was 3.66 µM [falling, full curve].

For the compound `COc1cccc(OC)c1C(=O)Nc1ccc(N2CCCCC2)cc1`, the cell number change came out at 13.4%. The AC50 under setting [1] was 0.731 µM [falling, full curve].

Consider `CCS(=O)(=O)NCCc1csc(-c2cccnc2)n1`, for which the cell number change was found to be 47%. For the same compound, under setting [2], the AC50 was 0.164 µM [rising, full curve, poor fit].

For the compound `O=C(C1CCC1)N1CCc2cc(S(=O)(=O)NC3CCCc4ccccc43)ccc21` (centres undefined), the cell number change stood at 87.2%. Further, the AC50 under setting [2] was 1.64 µM [rising, full curve]. For the same compound, the AC50 under setting [1] is 2.31 µM [rising, partial curve].

`Cc1cc(N2CCN(S(=O)(=O)c3ccc(C)c(C)c3)CC2)c2ccccc2n1`: the cell number change worked out at 42.3%. Further, under setting [2], the AC50 was 9.2 µM [rising, partial curve, poor fit]. Moreover, the concentration at half-maximal activity (AC50) under setting [1] is 0.731 µM [falling, single point].

For the compound `CCCNC(=O)C(=O)NCC(c1ccc2c(c1)OCO2)N1CCN(c2ccc(F)cc2)CC1` (centres undefined), the cell number change was -6.57%.

Regarding `COC(=O)c1ccc(/C=C/C(=O)c2ccc(OC)c(OC)c2)cc1`, the cell number change was -19.8%. Besides, the AC50 under setting [1] is 29.1 µM [falling, single point].

As for `COc1ccc(CN2C(=O)C(CC(C)C)Nc3ncnc(N4CCCCC4)c32)cc1` (centres undefined), the cell number change was -33.6%. In addition, the AC50 under setting [2] is 9.2 µM [falling, partial curve, poor fit].

For `Cc1cc(NC(=O)COC(=O)c2ccco2)no1`, the cell number change is -45.4%. For the same compound, the AC50 under setting [2] was 25.9 µM [falling, single point]. Also, the AC50 under setting [1] is 20.6 µM [falling, partial curve, poor fit].

In the case of `O=C(NCC1CCCO1)C1CCCN(S(=O)(=O)c2cccc(C(F)(F)F)c2)C1` (centres undefined), the cell number change stood at 25.2%. In addition, under setting [1], the AC50 is 29.1 µM [rising, single point].

As to `CCOc1cc(/C=C(/C#N)C(=O)Nc2ccc(O)cc2)cc(Br)c1O`, the cell number change is 13.1%. Moreover, the concentration at half-maximal activity (AC50) under setting [2] is 0.82 µM [falling, full curve, poor fit]. In addition, the AC50 under setting [1] is 0.731 µM [falling, full curve].
